# According to the supplement of paper PMC12067093, “Discovery and optimisation of a covalent ligand for TRIM25 and its application to targeted protein ubiquitination” (Chemical Science, 2025):
# Some of the results follow.
# Compound: Cc1cc(ccc1-c1ccccc1)C(=O)N1CCCN(CC1)C(=O)CCl [compound 10]
# Experiment: probe-labelled cysteine peptide fold change vs DMSO (competition) (log2 fold change); higher = less target engagement (more negative = stronger competition)
# Conditions: THP-1, incubation time: 4 h
# 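Note: competitive profiling in live THP-1 cells: cysteine peptides tagged with an iodoacetamide desthiobiotin (IA-DTB) probe, intensity after compound treatment relative to DMSO-treated cells.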
Target,probe-labelled cysteine peptide fold change (10 µM),probe-labelled cysteine peptide fold change (50 µM)
KIF2C_Q99661_560+572_TCMIATISPGISSCEYTLNTLR (UniProt Q99661),0.173,-0.0157
LAP3_P28838_129_AAVAAGCR (UniProt P28838),-0.15,0.0259
LANCL2_Q9NS86_169_SDCESQECVTK (UniProt Q9NS86),0.142,-0.125
LCP1_P13796_336_EKDDIQRAECMLQQAER (UniProt P13796),-0.365,-0.856
KMT2B_Q9UMN6_1447_QLHPGPCGLQAVSQR (UniProt Q9UMN6),0.0605,-0.028
LANCL1_O43813_252_LHSLVKPSVDYVCQLK (UniProt O43813),0.171,-0.123
LARP4_Q71RC2_623_KLSYAEVCQKPPKEPSSVLVQPLR (UniProt Q71RC2),0.0129,-0.0495
KNL1_Q8NG31_1579_QVIQTHVNAGEAPDPVITSNVPCFHSIKPNLNNLNGK (UniProt Q8NG31),-0.0675,-0.759
LCOR_Q96JN0-3_968_NAHIPSESIACK (UniProt Q96JN0),-0.159,-0.217
KIZ_Q2M2Z5_293_CDSSSGSEGEILTR (UniProt Q2M2Z5),0.0062,0.319
KPNB1_Q14974_223_HFIMQVVCEATQCPDTR (UniProt Q14974),-0.0415,0.0124
LCORL_Q8N3X6_193_NGSIGPSIVCK (UniProt Q8N3X6),-0.113,-0.18
LDHD_Q86WU2_462_ALALHGTCTGEHGIGMGKR (UniProt Q86WU2),-0.161,-0.533
L3MBTL2_Q969R5_446_LEAIDPLNLGNICVATVCK (UniProt Q969R5),0.385,0.547
KTI12_Q96EK9_7_PLVVFCGLPYSGK (UniProt Q96EK9),-0.0395,-0.109
LCP1_P13796_164_HVIPMNPNTNDLFNAVGDGIVLCK (UniProt P13796),0.209,0.0458
LCP1_P13796_618_MVMTVFACLMGK (UniProt P13796),-0.0499,0.0355
LAT2_Q9GZY6_160_TTETGAQQEGIGGLCR (UniProt Q9GZY6),-0.0497,-0.326
KIZ_Q2M2Z5_50_LYEYNQSDTCR (UniProt Q2M2Z5),-0.183,0.0156

Target,probe-labelled cysteine peptide fold change (10 µM),probe-labelled cysteine peptide fold change (50 µM)
KIFC1_Q9BW19_485_KGQGGECEIR (UniProt Q9BW19),0.112,0.254
KLC1_Q07866_390_NNLASCYLK (UniProt Q07866),0.196,-0.135
LCP1_P13796_336_DDIQRAECMLQQAER (UniProt P13796),-0.504,-0.778
KLHL8_Q9P2G9_590_IFAVGGHNGNAYLNTVEAFDPVLNRWELVGSVSHCR (UniProt Q9P2G9),0.34,0.184
KNOP1_Q1ED39_184_DVGDTCSVGK (UniProt Q1ED39),-0.381,-0.292
LENG8_Q96PV6_500_MAALECEDPER (UniProt Q96PV6),-0.193,-0.0815
LARP1_Q6PKG0_502_RREEPEKWPLPPIVDYSQTDFSQLLNCPEFVPR (UniProt Q6PKG0),-0.0687,-0.445
LDHD_Q86WU2_63_CEPPDAVVWPQNVEQVSR (UniProt Q86WU2),-0.334,0.36
LCMT1_Q9UIC8_136_CKPPLSSPILELHSEDTLQMDGHILDSK (UniProt Q9UIC8),-0.0708,-0.113
LARP4_Q71RC2_76_EYEVMYSSSCETTR (UniProt Q71RC2),-0.125,0.00753
LDHA_P00338_131_YSPNCK (UniProt P00338),0.0316,0.172
LENG8_Q96PV6_584_SLCMVK (UniProt Q96PV6),-0.193,-1.09
LAP3_P28838_335_LNLPINIIGLAPLCENMPSGK (UniProt P28838),-0.142,-0.0472
LACTB2_Q53H82_58_ILIDTGEPAIPEYISCLK (UniProt Q53H82),0.2,0.0902
LARP1_Q6PKG0_864_TASISSSPSEGTPTVGSYGCTPQSLPK (UniProt Q6PKG0),-0.118,-0.45
L3MBTL2_Q969R5_197_AAPVSCFK (UniProt Q969R5),-0.094,-0.0347
KLHL36_Q8N4N3_206_ECEHDLLQAALQWLTQQPER (UniProt Q8N4N3),0.342,-0.0783
KIF5B_P33176_174_FVCSPDEVMDTIDEGK (UniProt P33176),-0.26,-0.351
KRAS_P01116_118_CDLPSR (UniProt P01116),-0.137,-0.146
